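Uptake of anthrax lethal toxin into cultured cells, read by FRET (460/530 nm ratio) and reported from the 460 nm channel; the cell line is not named here. Each compound was tested as a concentration series from about 0.0005 to 40 µM. The number is the fitted AC50 of the 460 nm signal alone; lower values mean a more potent effect. A falling signal goes with compounds filed as inhibitors or cytotoxic, a rising one with activators or fluorescent compounds (inferred from the filed classes).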

Values are in µM. Common to all entries: measured here: 460 nm channel. Part of the compounds only, not a random draw; the main read-out is not listed here. Potencies fitted to partial, single-point or poorly fitting curves are rough. The first word of each remark tells which way the curve ran; it can be opposite to the aim of the assay.

SMILES	AC50 (µM)	curve
O=C(CC(C(=O)O)C1CCCO1)NCc1ccccc1 (stereo not drawn)	0.1259	falling, single point
O=C(O)c1ccc2cc(-c3ccc(O)c(C45CC6CC(CC(C6)C4)C5)c3)ccc2c1	10	falling, partial curve
COC(=O)[C@@H](NC(=O)NC1CCN(Cc2ccccc2)CC1)C(C)C	0.1585	rising, full curve
Cc1ccccc1-c1nc(CN2CCC(C(=O)NC3CCN(Cc4ccccc4)CC3)CC2)c(C)o1	1.259	falling, partial curve
Cc1[nH]nc2c1C(=O)CCC2	0.1259	falling, full curve, poor fit
O=S(=O)(Nc1ccn(-c2ccccc2)n1)c1ccc(Br)cc1	10	falling, partial curve
COc1cccc(Cn2c(N)c(C#N)c3nc4ccccc4nc32)c1OC	10	rising, partial curve
CC(=O)O[C@@H]1CC[C@]2(C)[C@H]3CC[C@]4(C)[C@H](C[C@H]5CCCC[C@@]54C(C)=O)[C@@H]3CC(=O)[C@@]2(O)C1	31.62	falling, single point
COCCCn1c(C2CCCCC2)nc2oc3cc(OC)ccc3c(=O)c2c1=O	0.3162	rising, full curve, poor fit
CCn1c(SCCOc2ccc(OC)cc2)nnc1C(CO)NC(=O)c1ccc(OC)cc1 (stereo not drawn)	12.59	rising, single point
Cc1ccc(C2=CC(c3ccc(N(C)C)cc3)n3nnnc3N2)cc1 (stereo not drawn)	3.162	rising, single point
Nc1ccc([N+](=O)[O-])cc1	31.62	falling, single point
N#Cc1nc(-c2ccco2)oc1NCCCN1CCOCC1	3.981	rising, single point
COC1=C(C)C(=O)c2c(c(COC(N)=O)c3n2C[C@@H]2[C@@H]3N2C)C1=O (stereo partly drawn)	1.585	falling, partial curve
COc1ccc(-c2nnc(Nc3nc4c(OC)cccc4s3)o2)cc1	3.162	rising, partial curve
CCNc1oc(-c2cccc3ccccc23)nc1C#N	0.3162	rising, single point
COc1ccc2nc(SCc3nc(N)nc(Nc4ccccc4)n3)[nH]c2c1	31.62	falling, single point
COc1ccc(C(c2c(O)ccc3ccccc23)N2CCOCC2)c(OC)c1 (stereo not drawn)	7.943	falling, partial curve
CCC(c1nnnn1Cc1ccco1)N1CCN(c2cc(Cl)ccc2C)CC1 (stereo not drawn)	12.59	falling, partial curve
Cc1cc(CN(C)C)c(O)c(C2(C)CCCCC2)c1	0.07943	rising, single point
COc1ccc(N(CC(=O)Nc2cccc(SC)c2)S(C)(=O)=O)cc1Cl	12.59	falling, partial curve
O=C(c1ccncc1)N1CCC2(CCCN(C(c3ccccc3)c3ccccc3)C2)CC1	15.85	falling, partial curve
Cc1[nH]c2ccccc2c1C1=CCNCC1	0.5012	rising, full curve, poor fit
O=C1c2c(O)ccc(O)c2C(=O)c2c(NCCNCCO)ccc(NCCNCCO)c21	12.59	falling, partial curve
COC(=O)c1[nH]c2cccc(Cl)c2c1NC(=O)CN1CCCCC1C (stereo not drawn)	0.05012	falling, full curve, poor fit
Cn1c(SCC(N)=O)nnc1C1CCN(S(=O)(=O)c2ccccc2C(F)(F)F)CC1	5.012	rising, single point
COC(=O)C1=C(C)NC(C)=C(C(=O)OCCCN2CCC(c3ccccc3)(c3ccccc3)CC2)[C@H]1c1cccc([N+](=O)[O-])c1	15.85	falling, partial curve
CN1CCN(c2ncc3nc(-c4cn(C)c5ccccc45)c(=O)n(C[C@H]4CCCO4)c3n2)CC1	10	rising, partial curve
CN(Cc1ccco1)c1cc(-c2ccccc2C(F)(F)F)ncn1	1.995	falling, partial curve
O=C(CCNS(=O)(=O)c1cccc2nsnc12)Nc1ccc2c(c1)OCCO2	5.012	rising, single point
CCn1cc(C(=O)NC2CCC(C)CC2)c(=O)c2cc(S(=O)(=O)N3CCCCC3)ccc21 (stereo not drawn)	5.012	rising, single point
Cc1ncc(CN=Cc2ccc(Cl)cc2)c(N)n1	1	rising, single point
Cc1ccc(C(=O)CCNc2ccc(Br)cc2)o1	2.512	falling, partial curve, poor fit
CCc1c(C#N)c(SCc2c(C)noc2C)nc2c1C(=O)CC(C)(C)C2	15.85	rising, partial curve
CC[C@@H]1O[C@]2(C=C[C@@H]1C)C[C@H]1C[C@H](CC=C(C)[C@@H](O[C@@H]3C[C@H](OC)[C@H](O[C@@H]4C[C@H](OC)[C@H](O)[C@H](C)O4)[C@H](C)O3)[C@@H](C)C=CC=C3CO[C@@H]4[C@@H](O)C(C)=C[C@@H](C(=O)O1)[C@]34O)O2	15.85	rising, single point
Cc1csc(Sc2nc3c(c(=O)[nH]c(=O)n3C)n2Cc2ccccc2Cl)n1	5.012	rising, single point
CCCCN(CC)CCCNC(=O)c1cc2c(=O)n(C)c3ccccc3c2n1C	3.162	falling, full curve
Cc1cc(C)cc(OCc2nnc(SCC(=O)c3ccccc3)o2)c1	10	falling, partial curve
CCN(CCCNC(=O)CC(C(=O)N1CCc2ccccc21)n1ccnc1)c1cccc(C)c1 (stereo not drawn)	10	rising, single point
Cc1csc(NC(=O)C2CCN(C(=O)CSc3nnc(C)n3Cc3ccccc3)CC2)n1	6.31	rising, partial curve, poor fit
c1ccc(N2CCN(c3ccccc3)C2c2cccs2)cc1	12.59	falling, partial curve
Cc1cnc(NC(=O)CN2CCN(c3ccccn3)CC2)s1	0.01995	falling, full curve, poor fit
CCOC(=O)N1CCN(C(=O)c2cc(-n3cnnc3)ccc2Cl)CC1	0.007943	falling, full curve
COc1ncnc2sc(-c3ccccc3)cc12	7.943	falling, partial curve
COc1ncc2nc(-c3cn(C)c4ccccc34)c(=O)n(CCc3ccccc3)c2n1	12.59	rising, partial curve
CCCCn1nnc(NC(=O)c2sc3cc(Cl)ccc3c2Cl)n1	25.12	rising, single point
COc1ccc(OC)c2c(C)cc(NCCN3CCOCC3)nc12	31.62	falling, single point
O=C(Nc1nc(-c2nc3ccccc3s2)cs1)C1CC1	3.981	falling, full curve
N=c1n(Cc2ccccc2)c2ccccc2n1CC(O)COc1ccccc1 (stereo not drawn)	0.1259	falling, single point
COc1ccccc1CCn1c(=O)c(-c2ccc(F)c(F)c2)nc2cncnc21	10	rising, partial curve
O=C(CN1CCCCC1)Nc1ccc(F)c(Cl)c1	5.012	rising, single point

The first 3 entries again:

Result for O=C(CC(C(=O)O)C1CCCO1)NCc1ccccc1 (stereo not drawn) was AC50 0.1259 µM (falling, single point).
Result for O=C(O)c1ccc2cc(-c3ccc(O)c(C45CC6CC(CC(C6)C4)C5)c3)ccc2c1 was AC50 10 µM (falling, partial curve).
Result for COC(=O)[C@@H](NC(=O)NC1CCN(Cc2ccccc2)CC1)C(C)C was AC50 0.1585 µM (rising, full curve).

Source: PubChem BioAssay AID912 (NCATS, 2007).